# PubChem BioAssay AID1259254 | NCATS, 2017
# Test: 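Gene knock-downs that lead to re-replication, shown by excess G2 DNA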 (primary screen)
# Cell system: human HCT116 colorectal cancer cells
# Reagents: single siRNA against human genes
# Duration: 3 days
# Read-out: 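Nuclei stained with Hoechst and imaged; cell-cycle phase assigned by DNA content; G2 share scaled per plate, non-targeting siRNA 0%, GMNN siRNA 100%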
# Reading the numbers: G2 robust z-score and G2 cells, % of GMNN control: higher = more G2 cells, more excess DNA replication; raw share of cells in G2: higher = larger share of cells with G2 DNA content
# Active means: 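Active siRNAs have a G2 robust z of 5 or more median absolute deviations over the median, which in these data means about 38% or higher of GMNN control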
# In all, the deposit lists about 59,000 reagents; this is a random part of them. About 1,550 of them (2.6%) count as active. 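G2 share is only a proxy for re-replication; each gene was hit by three separate siRNAs, and active genes were retested.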 Raw values are not corrected between plates. The numbers tell different reagents against one gene apart. Not stated in the record: the amount of reagent.
target,siRNA no.,G2 robust z-score,"G2 cells, % of GMNN control",raw share of cells in G2 (%),outcome
PDE6C,1,2.7,22,11.9,inactive
PDE6C,2,-0.552,-0.918,4.03,inactive
PDE6C,3,0.462,6.22,5.37,inactive
NPIPB15,1,-0.653,-1.62,2.57,inactive
NPIPB15,2,-0.451,-0.206,3.54,inactive
NPIPB15,3,0.688,7.81,6.38,inactive
CYP26C1,1,-0.475,-0.374,4.81,inactive
CYP26C1,2,2.01,17.1,13.3,inactive
CYP26C1,3,-1.12,-4.94,2.48,inactive
CCDC120,1,-0.706,-2,3.24,inactive
CCDC120,2,0.71,7.96,5.5,inactive
CCDC120,3,-0.344,0.545,3.1,inactive
SSR4P1,1,0.333,5.31,5.16,inactive
SSR4P1,2,1.29,12.1,8.12,inactive
SSR4P1,3,-0.149,1.92,3.55,inactive
SSR4P1,4,-1.28,-6.07,1.3,inactive
SSR4P1,5,-0.326,0.672,4.52,inactive
SSR4P1,6,1.27,11.9,7.42,inactive
MUC4,1,3.06,24.5,15.2,inactive
MUC4,2,-0.645,-1.57,4.75,inactive
MUC4,3,-0.406,0.109,3.23,inactive
KPNA2,1,-0.0867,2.36,5.9,inactive
KPNA2,2,6.82,51,25.1,active
KPNA2,3,0.41,5.85,6.35,inactive
ANTXRL,1,-0.452,-0.216,3.53,inactive
ANTXRL,2,-0.597,-1.23,2.55,inactive
ANTXRL,3,0.253,4.75,4.26,inactive
PRDM13,1,0.00112,2.98,3.84,inactive
PRDM13,2,-0.577,-1.09,5.42,inactive
PRDM13,3,0.972,9.81,6.71,inactive
MAP2K3,1,1.6,14.2,10.3,inactive
MAP2K3,2,-0.0211,2.82,6.36,inactive
MAP2K3,3,-0.547,-0.88,3.71,inactive
SH2D3C,1,-0.822,-2.82,4.06,inactive
SH2D3C,2,-0.246,1.23,4.46,inactive
SH2D3C,3,0.247,4.71,5.12,inactive
CYTH3,1,1.3,12.1,9.05,inactive
CYTH3,2,-1.29,-6.08,3.13,inactive
CYTH3,3,-0.849,-3,3.17,inactive
AXDND1,1,-0.473,-0.36,4.04,inactive
AXDND1,2,2.62,21.4,9.88,inactive
AXDND1,3,-0.635,-1.5,2.04,inactive
PHLPP2,1,-1.07,-4.56,3.2,inactive
PHLPP2,2,-0.712,-2.05,3.29,inactive
PHLPP2,3,0.218,4.5,4.86,inactive
CHCHD3,1,-0.3,0.856,3.47,inactive
CHCHD3,2,-0.871,-3.16,2.47,inactive
CHCHD3,3,0.411,5.86,6.74,inactive
VN1R1,1,-1.23,-5.67,3.81,inactive
VN1R1,2,0.164,4.12,5.96,inactive
VN1R1,3,-0.992,-4.01,2.04,inactive
SLC25A26,1,2.87,23.1,14.9,inactive
SLC25A26,2,-0.231,1.35,4.99,inactive
SLC25A26,3,0.363,5.52,8.23,inactive
NCS1,1,-1,-4.09,4.73,inactive
NCS1,2,-0.526,-0.733,3.91,inactive
NCS1,3,-0.382,0.277,3.96,inactive
TSGA13,1,-0.501,-0.56,3.87,inactive
TSGA13,2,-0.17,1.77,3.86,inactive
TSGA13,3,-1,-4.07,0.63,inactive
CD300C,1,-0.0852,2.37,5.91,inactive
CD300C,2,1.41,12.9,9.46,inactive
CD300C,3,0.052,3.33,4.42,inactive
C3orf38,1,-0.812,-2.74,2.43,inactive
C3orf38,2,-0.156,1.87,4.32,inactive
C3orf38,3,1.31,12.2,7.75,inactive
ABCA10,1,1.42,13,11.3,inactive
ABCA10,2,0.0919,3.61,5.01,inactive
ABCA10,3,-1.2,-5.49,4.31,inactive

Copied from the entries so far for reference:
target,siRNA no.,G2 robust z-score,"G2 cells, % of GMNN control",raw share of cells in G2 (%),outcome
PRDM13,1,0.00112,2.98,3.84,inactive
PRDM13,2,-0.577,-1.09,5.42,inactive
PRDM13,3,0.972,9.81,6.71,inactive
MAP2K3,1,1.6,14.2,10.3,inactive
MAP2K3,2,-0.0211,2.82,6.36,inactive
MAP2K3,3,-0.547,-0.88,3.71,inactive
SH2D3C,1,-0.822,-2.82,4.06,inactive
SH2D3C,2,-0.246,1.23,4.46,inactive
SH2D3C,3,0.247,4.71,5.12,inactive
